# Earlier results, collected in US20080194562A1, “Pyrazole Derivatives For The Inhibition Of Cdk's And Gsk's” (ASTEX THERAPEUTICS LIMITED, priority 2005, published 2008).
# For at least one compound, name, drawing or mass did not settle the structure.
# System: symptomatic CLL patients
# Details: initial therapy, v 17 months with alkylator-based therapies
compound,measurement,value
Nc1nc(F)nc2c1ncn2[C@@H]1O[C@H](CO)[C@@H](O)[C@@H]1O [fludarabine],duration of progression-free survival,33 months
